# At least one compound was matched to its structure with a doubt left.
# By UniProt entry, the sequences of proteins in these tests, tags left out.
# UniProt P13866, whole entry, species assumed: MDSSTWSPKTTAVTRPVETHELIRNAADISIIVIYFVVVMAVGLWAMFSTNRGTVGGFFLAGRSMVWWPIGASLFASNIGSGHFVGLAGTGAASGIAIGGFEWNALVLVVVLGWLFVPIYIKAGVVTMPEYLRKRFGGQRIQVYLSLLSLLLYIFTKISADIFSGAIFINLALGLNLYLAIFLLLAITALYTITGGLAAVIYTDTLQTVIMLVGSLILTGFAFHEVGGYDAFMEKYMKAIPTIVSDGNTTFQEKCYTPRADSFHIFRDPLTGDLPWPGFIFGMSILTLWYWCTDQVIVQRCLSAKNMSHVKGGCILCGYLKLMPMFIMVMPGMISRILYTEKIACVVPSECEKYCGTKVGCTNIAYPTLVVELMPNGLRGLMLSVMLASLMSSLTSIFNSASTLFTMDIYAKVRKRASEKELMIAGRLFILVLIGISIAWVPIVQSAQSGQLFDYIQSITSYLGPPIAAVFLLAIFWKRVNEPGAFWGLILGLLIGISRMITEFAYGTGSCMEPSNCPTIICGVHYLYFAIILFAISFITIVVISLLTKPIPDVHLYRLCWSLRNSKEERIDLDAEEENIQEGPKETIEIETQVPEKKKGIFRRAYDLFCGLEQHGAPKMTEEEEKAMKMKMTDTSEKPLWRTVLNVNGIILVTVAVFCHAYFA
# Biological target: SGLT1 (Homo sapiens (Human), UniProt P13866)
# Test: Activity assay of SGLT1: [14C] methyl α-D-glucopyranoside uptake in SGLT1 transiently transferred HEK293 cells
# Type: cell-based
# Conditions: conclusion from the IC50 table
# Experimental: Activity Assay of SGLT1 and SGLT2:
# The following method was used to determine the inhibitory activity of the compounds of the present invention on SGLT1 and SGLT2. The experimental method is summarized as follows:
# SGLT1 and SGLT2 transiently transferred HEK293 cells (prepared according to the existing literature “Diabetes, 57, 1723-1729, 2008”, wherein cDNA of SGLT1 and SGLT2 was purchased from Origene company) were seeded in a 96-well plate. The density of the cells was 1-1.5×10^4. The cells were cultured at 37° C. and 5% CO2 for 48 hours, and then washed twice with 200 μL sodium-free buffer. 90 μL sodium-containing buffer of the test compound at different concentrations was added to the well. Each test compound was repeated in three wells for each concentration. The cells were cultured at 37° C. for 15 minutes, then 10 μL (in number 0.1 μCi [^14C]) Methyl α-D-glucopyranoside was added to each well of the 96-well plate. The cells were further cultured at 37° C. for 2 hours, then the supernatant was discarded. The cells were washed twice with pre-chilled sodium-free buffer and then dissolved in 100 μL NaOH (200 mM). 100 μL scintillation solution was added, and mixed well. Scintiloscope was used for the quantitative detection of ^14C.
# IC50 values of the compounds of various examples were calculated from the […] at different concentrations.
smiles,measurement,value
"Cc1cc(O)c([C@@H]2S[C@H](CO)[C@@H](O)[C@H](O)[C@H]2O)cc1Cc1ccc2c(c1)OCCO2 [Example 6, (2S,3R,4R,5S,6R)-2-(5-((2,3-dihydrobenzo[b][1,4]dioxin-6-yl)methyl)-2-hydroxy-4-methylphenyl)-6-(hydroxymethyl)tetrahydro-2H-thiopyran-3,4,5-triol]",inhibition of SGLT1 (conclusion in words),inhibited SGLT1

# Reference: patent US10011627B2, “C-aryl glucoside derivative, preparation methods thereof, and medical applications thereof” (YOUNGENE THERAPEUTICS CO., LTD, priority 2013, dated 2018)
